Data from article PMC11780777.

Chains of the proteins cited; added tags and fusions are not shown.
UniProt Q96SW2: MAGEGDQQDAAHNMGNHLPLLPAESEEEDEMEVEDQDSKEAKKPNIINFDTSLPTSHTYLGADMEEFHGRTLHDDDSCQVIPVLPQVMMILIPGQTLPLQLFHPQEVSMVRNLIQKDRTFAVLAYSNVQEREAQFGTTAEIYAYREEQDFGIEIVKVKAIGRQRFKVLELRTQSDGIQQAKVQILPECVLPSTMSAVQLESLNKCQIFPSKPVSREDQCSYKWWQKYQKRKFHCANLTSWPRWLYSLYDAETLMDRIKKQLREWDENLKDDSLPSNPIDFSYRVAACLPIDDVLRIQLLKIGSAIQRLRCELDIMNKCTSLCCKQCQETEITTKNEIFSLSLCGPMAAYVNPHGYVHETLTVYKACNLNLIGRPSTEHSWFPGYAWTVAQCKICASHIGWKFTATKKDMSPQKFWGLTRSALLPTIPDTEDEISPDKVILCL

Target: CRBN-FLAG-NLS-TurboID or CRBN-FLAG-NES-TurboID (UniProt Q96SW2)
Assay: proximity labelling; TurboID: CRBN-FLAG-NLS-TurboID or CRBN-FLAG-NES-TurboID in HEK293T for 48 h, biotin 50 uM for 30 min; biotinylated proteins purified with NeutrAvidin, digested with trypsin, LC-MS/MS; pcDNA3.1 as control

B1: endogenous NAC1 (HEK293T) (protein, UniProt Q96RE7 1-527)
chain: MAQTLQMEIPNFGNSILECLNEQRLQGLYCDVSVVVKGHAFKAHRAVLAASSSYFRDLFNNSRSAVVELPAAVQPQSFQQILSFCYTGRLSMNVGDQFLLMYTAGFLQIQEIMEKGTEFFLKVSSPSCDSQGLHAEEAPSSEPQSPVAQTSGWPACSTPLPLVSRVKTEQQESDSVQCMPVAKRLWDSGQKEAGGGGNGSRKMAKFSTPDLAANRPHQPPPPQQAPVVAAAQPAVAAGAGQPAGGVAAAGGVVSGPSTSERTSPGTSSAYTSDSPGSYHNEEDEEEDGGEEGMDEQYRQICNMYTMYSMMNVGQTAEKVEALPEQVAPESRNRIRVRQDLASLPAELINQIGNRCHPKLYDEGDPSEKLELVTGTNVYITRAQLMNCHVSAGTRHKVLLRRLLASFFDRNTLANSCGTGIRSSTNDPRRKPLDSRVLHAVKYYCQNFAPNFKESEMNAIAADMCTNARRVVRKSWMPKVKVLKAEDDAYTTFISETGKIEPDMMGVEHGFETASHEGEAGPSAEALQ
binding: binds

B2: endogenous PICALM (HEK293T) (protein, UniProt Q13492 1-652)
chain: MSGQSLTDRITAAQHSVTGSAVSKTVCKATTHEIMGPKKKHLDYLIQCTNEMNVNIPQLADSLFERTTNSSWVVVFKSLITTHHLMVYGNERFIQYLASRNTLFNLSNFLDKSGLQGYDMSTFIRRYSRYLNEKAVSYRQVAFDFTKVKRGADGVMRTMNTEKLLKTVPIIQNQMDALLDFNVNSNELTNGVINAAFMLLFKDAIRLFAAYNEGIINLLEKYFDMKKNQCKEGLDIYKKFLTRMTRISEFLKVAEQVGIDRGDIPDLSQAPSSLLDALEQHLASLEGKKIKDSTAASRATTLSNAVSSLASTGLSLTKVDEREKQAALEEEQARLKALKEQRLKELAKKPHTSLTTAASPVSTSAGGIMTAPAIDIFSTPSSSNSTSKLPNDLLDLQQPTFHPSVHPMSTASQVASTWGDPFSATVDAVDDAIPSLNPFLTKSSGDVHLSISSDVSTFTTRTPTHEMFVGFTPSPVAQPHPSAGLNVDFESVFGNKSTNVIVDSGGFDELGGLLKPTVASQNQNLPVAKLPPSKLVSDDLDSSLANLVGNLGIGNGTTKNDVNWSQPGEKKLTGGSNWQPKVAPTTAWNAATMAPPVMAYPATTPTGMIGYGIPPQMGSVPVMTQPTLIYSQPVMRPPNPFGPVSGAQIQFM
binding: binds

Results are given in words; binding and its absence hold for the method and conditions named. Binding seen in cells or lysates may run through a third protein. A yes stands for co-enrichment or nearness to the bait. Other partners may have been found.
